{"sequences": {"note": "Chains of the proteins cited; added tags and fusions are not shown. Lines headed by an entry give the natural chain unless they say otherwise; changes in a name come on top.", "UniProt P33911": "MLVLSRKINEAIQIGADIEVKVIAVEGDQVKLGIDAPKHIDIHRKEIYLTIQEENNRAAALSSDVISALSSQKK"}, "source": "paper PMC8501984", "target": "CsrA (UniProt P33911)", "assay": "EMSA", "settings": "0.15 fmol labelled RNA, increasing CsrA; RNA-RNA EMSAs in the paper: TMN buffer, 37 C, 30 min, 6% native PAA gel; recombinant protein; label: internal 32P-[alpha-UTP]; probe letters rebuilt from the primers and the genome; part of a longer molecule", "note": "Construct, isoform or probe ends are uncertain for at least one entry."}
{"sequence": "AGGUAAAAGUCAAUCUGUAUAUGUCGAAACACGAUGAUCAUGCAAAGGAGGGAUUCUGUGGAACAGGAUACGCAGCAUGUUAAACCACUUCAAACAAAAACCGAUAUUCAUGCAGUCUUGGCCUCUAAUGGACGCAUCAUUUAUAUAUCUGCCAACUCCAAACUGCAUUUGGGCUAUCUCCAAGGAGAGAUGAUCGGAUCAUUCCUCAAAACGUUUCUGCAUGAGGAAGACCA [kinA233 mRNA (5' 233 nt)]", "values": [{"measurement": "binding result", "value": "binds"}]}
